From PubChem BioAssay AID504444 (National Center for Advancing Translational Sciences (NCATS), 2011)
Screen size: about 360,000 compounds; about 7,500 (2.1%) were called active. Inconclusive results, whose numbers are uncertain, are shown with a selection of clear calls. The call rests on the fitted dose curve; in most records, active means well fitted inhibition curve with a large enough effect; inconclusive means small, poorly fitted or top-dose-only effect, or effect the other way; inactive means flat fitted curve, though single readings scatter. A potency beside an inconclusive call is a rough fit, not a confirmed value.
On the % scale 0 is the no-effect control and ±100 the full control effect; potency means the concentration at half of the fitted maximal effect.

Test: Nrf2 qHTS screen for inhibitors; further: nearly all actives have a fitted effect of over 60% in size
Conditions: A549 ARE-Fluc reporter, luciferase luminescence, 18-24 h; activity change, negative = inhibition: at 46 µM (top of the series)
In short: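 Nrf2 activity is the BugLite luminescence, read 15 min after reagent at room temperature, following CellTiter-Fluor cytotoxicity readout (30 min, 37C). Compound titrations were applied for 18-24 h to 5000 A549 ARE_Fluc cells/well in 5% FBS OPTI-MEM.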
With `O=C(CCC1CCCCC1)Nc1nnc(C(F)(F)F)s1` the Potency was inconclusive: 29.1 µM [falling, single point]. For `O=C(NCC(c1cccnc1)N1CCc2ccccc21)c1cccc(F)c1` (stereo not drawn), the Potency was inconclusive: 4.61 µM [falling, partial curve, poor fit]. For `CSC(=NS(=O)(=O)c1ccc(N)cc1)NS(=O)(=O)c1cccs1`, the “activity change, negative = inhibition” value was inactive: -3.13%. In the case of `O=C(Nc1ccc2c(c1)OCO2)Nc1ccc(F)cc1F`, the Potency is reported as inconclusive: 0.58 µM [activator, full curve, poor fit]. With `CCCCN(C(=O)CCn1c(=O)oc2ccccc21)c1ccccc1` the Potency was inconclusive: 7.31 µM [falling, single point]. In the case of `COc1ccc(CNC(=O)COC(=O)c2cc(-c3ccc(Cl)s3)nc3ccccc23)cc1`, the Potency is reported as inconclusive: 29.1 µM [falling, single point]. With `CCC(Oc1ccccc1)C(=O)Nc1ccc(-c2nnc(-c3ccco3)o2)cc1` (stereo not drawn) the Potency was inconclusive: 2.59 µM [activator, partial curve, poor fit]. With `CCOCc1cn(CC(=O)c2ccc(Cl)cc2)c(C)nc1=N` the Potency was inconclusive: 29.1 µM [falling, single point]. With `CCOc1ccc(-c2cc(CCCC(=O)NCCc3ccc(SC)cc3)no2)cc1` the Potency was inconclusive: 1.46 µM [falling, full curve, poor fit]. For `Cc1cc(C)n(CC(=O)Nc2cccc(C(F)(F)F)c2)n1`, the “activity change, negative = inhibition” value was inactive: -9.68%. In the case of `COc1ccc(NC(=O)C2(c3ccc(NC(=O)c4ccc(OC(C)=O)cc4)cc3)CCCC2)cc1`, the Potency is reported as inconclusive: 13 µM [falling, partial curve, poor fit]. With `CC(=O)Nc1ccc(-c2csc(Nc3cccc(C)n3)n2)cc1` the Potency was inconclusive: 5.17 µM [activator, full curve]. For `Cc1cnc(NC(=O)c2ccc(OCC3CCCO3)cc2)s1` (stereo not drawn), the Potency was inconclusive: 1.46 µM [activator, full curve]. In the case of `COc1ccc(C(C(=O)NC2CCCCC2)N(C(=O)c2ccccn2)c2cccnc2)cc1` (stereo not drawn), the Potency is reported as inconclusive: 3.26 µM [activator, full curve, poor fit]. For `CN(C)c1nc(NC(C)(C)C)nc(SCC(=O)Nc2ccccc2)n1`, the Potency was inconclusive: 23.1 µM [falling, single point]. For `CCc1c(C)sc(NC(=S)N2CC(C)OC(C)C2)c1C(=O)OC` (stereo not drawn), the Potency was inconclusive: 16.4 µM [falling, single point]. For `COc1ccc(NC(=O)CN(C)S(=O)(=O)c2ccc3nc(C)sc3c2)cc1Cl`, the Potency was inconclusive: 20.6 µM [falling, single point]. With `CCOc1ccc(NC(=O)CC2C(=O)N(c3ccccc3)C(=O)N2Cc2ccccn2)cc1` (stereo not drawn) the “activity change, negative = inhibition” value was inactive: 13.2%. In the case of `Cc1cccc(Nc2nnc(-c3ccc(C)c(S(=O)(=O)N4CCOCC4)c3)c3ccccc23)c1`, the “activity change, negative = inhibition” value is reported as inactive: -22.6%. In the case of `CC(=O)Nc1ccc(N/C=C(\C=O)c2nc3ccccc3o2)cc1`, the Potency is reported as inconclusive: 29.1 µM [activator, single point]. In the case of `CCOC(=O)COc1ccc(C(=O)Nc2cccc(Cl)c2C)cc1`, the “activity change, negative = inhibition” value is reported as inactive: 4.88%. For `COc1cc(C2NC(=S)NC(O)(C(F)(F)F)C2C(=O)c2cccs2)cc(OC)c1O` (stereo not drawn), the Potency was inconclusive: 6.51 µM [activator, partial curve, poor fit]. For `Cc1cccc(N2CCN(Cc3oc(CO)cc(=O)c3O)CC2)c1C`, the Potency was inconclusive: 15.8 µM [falling, single point]. With `CC(=O)N1c2ccc(S(=O)(=O)N3CCC(C(=O)Nc4ccc(F)cc4)CC3)cc2CC1C` (stereo not drawn) the Potency was inconclusive: 23.1 µM [falling, single point]. With `COc1ccc2c(c1)CCc1c-2n[nH]c1C(=O)NCCC(C)C` the Potency was inconclusive: 2.31 µM [activator, full curve]. With `Cc1ccc(NS(=O)(=O)c2ccc3[nH]c4c(c3c2)CCCCCC4)cc1C` the Potency was inconclusive: 23.1 µM [falling, single point]. For `COc1ccc(NC(=O)Cc2coc3cc(C)c(C(C)C)cc23)cc1S(=O)(=O)N1CCOCC1`, the Potency was inconclusive: 20.6 µM [falling, single point]. In the case of `COc1ccc(/C=N/NC(=O)c2ccn[nH]2)cc1COc1ccc([N+](=O)[O-])c(C)c1`, the Potency is reported as inconclusive: 18.4 µM [falling, partial curve, poor fit]. In the case of `COCC(C)NC(=O)NC(=O)c1ccc(Cl)cc1` (stereo not drawn), the Potency is reported as inconclusive: 6.51 µM [falling, single point]. In the case of `CCOc1ccc(/C=N/Nc2cc(N3CCOCC3)nc(C)n2)c(O)c1`, the Potency is reported as inconclusive: 0.103 µM [falling, full curve, poor fit]. With `CCS(=O)(=O)c1nc(S(=O)(=O)c2ccc(Cl)cc2)c(NCCCN2CCCC2=O)s1` the “activity change, negative = inhibition” value was inactive: -19%. For `CC(O)CNc1nc(N)[nH]c(=O)c1N=Nc1ccccc1` (stereo not drawn), the “activity change, negative = inhibition” value was inactive: 0.494%. With `O=C(CCc1ccccc1)Nc1cccc([N+](=O)[O-])c1` the “activity change, negative = inhibition” value was inactive: 22.8%. In the case of `CCOC(=O)C1CCCN(C(=O)CCNC(=O)Cn2ccc3ccccc3c2=O)C1` (stereo not drawn), the “activity change, negative = inhibition” value is reported as inactive: 0.181%. With `COc1ccc(CC2(CO)COc3ccccc3C2=O)cc1` (stereo not drawn) the “activity change, negative = inhibition” value was inactive: -7.08%. For `Nc1nc(SCc2ccccc2)[nH]c(=O)c1-c1ccccc1`, the Potency was inconclusive: 9.2 µM [activator, partial curve]. With `COC(c1ccccc1)c1nnc(CCC(=O)N(C)C(C2CC2)C2CC2)o1` (stereo not drawn) the Potency was inconclusive: 18.4 µM [activator, partial curve]. In the case of `COC(=O)c1cc(C)nc(Sc2ccccc2N)n1`, the Potency is reported as inconclusive: 14.6 µM [activator, single point]. For `Fc1ccc(-c2cn3cc(C(F)(F)F)cc(Cl)c3n2)cc1`, the Potency was inconclusive: 0.13 µM [activator, full curve, poor fit]. With `Nc1nc(Nc2ccc(Cl)cc2)nc2ccccc12` the Potency was inconclusive: 4.11 µM [activator, partial curve, poor fit]. For `O=C(Nc1nnc(S(=O)(=O)N2CCCCC2)s1)c1cccc(Br)c1`, the Potency was active: 25.9 µM. For `Oc1oc(-c2cccc3ccccc23)nc1/C=N/c1nccs1`, the Potency was inconclusive: 29.1 µM [falling, single point]. With `CCOC(=O)c1sc(=NC(=O)c2cccc(OC)c2)n(C)c1C` the Potency was inconclusive: 2.31 µM [activator, full curve].
